According to paper doi:10.1101/2023.02.19.529116:
Results are given in words; binding and its absence hold for the method and conditions named. Some entries that bind do so weakly or less than the wild type. For some assays here: Where a sequence is shown, tags or fusion partners need not be part of it.

How the values were obtained:
[1] = target: T1, Smoothened cytotail (Smo 556-1036), ReLo (Drosophila) (UniProt P91682); test: ReLo
T1 sequence: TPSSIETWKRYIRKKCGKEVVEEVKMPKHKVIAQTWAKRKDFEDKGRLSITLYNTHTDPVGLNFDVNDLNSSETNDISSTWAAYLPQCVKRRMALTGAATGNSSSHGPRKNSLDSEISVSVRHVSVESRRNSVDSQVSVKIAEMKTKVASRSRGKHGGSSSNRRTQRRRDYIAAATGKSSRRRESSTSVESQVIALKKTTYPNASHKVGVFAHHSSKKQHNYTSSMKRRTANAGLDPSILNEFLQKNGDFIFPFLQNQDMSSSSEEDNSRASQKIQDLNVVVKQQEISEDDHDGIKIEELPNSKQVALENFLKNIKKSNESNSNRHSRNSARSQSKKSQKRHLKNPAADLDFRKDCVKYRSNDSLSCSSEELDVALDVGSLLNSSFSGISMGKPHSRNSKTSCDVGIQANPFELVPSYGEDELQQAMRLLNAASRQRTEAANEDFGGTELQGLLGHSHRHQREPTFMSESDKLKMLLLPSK

[2] = target: T2, Smoothened SBR (970-1003), ReLo (Drosophila) (UniProt P91682); test: ReLo
T2 sequence: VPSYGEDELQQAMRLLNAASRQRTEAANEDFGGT

[3] = target: T3, GST-Smoothened 970-1003 (SBR) wildtype (Drosophila) (UniProt P91682); test: pull-down
T3 sequence: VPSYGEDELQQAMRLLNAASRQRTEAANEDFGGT

[4] = target: T4, PH-EGFP-Smaug (Drosophila), Q23972; test: ReLo; details: remark: other sources report otherwise
T4 chain: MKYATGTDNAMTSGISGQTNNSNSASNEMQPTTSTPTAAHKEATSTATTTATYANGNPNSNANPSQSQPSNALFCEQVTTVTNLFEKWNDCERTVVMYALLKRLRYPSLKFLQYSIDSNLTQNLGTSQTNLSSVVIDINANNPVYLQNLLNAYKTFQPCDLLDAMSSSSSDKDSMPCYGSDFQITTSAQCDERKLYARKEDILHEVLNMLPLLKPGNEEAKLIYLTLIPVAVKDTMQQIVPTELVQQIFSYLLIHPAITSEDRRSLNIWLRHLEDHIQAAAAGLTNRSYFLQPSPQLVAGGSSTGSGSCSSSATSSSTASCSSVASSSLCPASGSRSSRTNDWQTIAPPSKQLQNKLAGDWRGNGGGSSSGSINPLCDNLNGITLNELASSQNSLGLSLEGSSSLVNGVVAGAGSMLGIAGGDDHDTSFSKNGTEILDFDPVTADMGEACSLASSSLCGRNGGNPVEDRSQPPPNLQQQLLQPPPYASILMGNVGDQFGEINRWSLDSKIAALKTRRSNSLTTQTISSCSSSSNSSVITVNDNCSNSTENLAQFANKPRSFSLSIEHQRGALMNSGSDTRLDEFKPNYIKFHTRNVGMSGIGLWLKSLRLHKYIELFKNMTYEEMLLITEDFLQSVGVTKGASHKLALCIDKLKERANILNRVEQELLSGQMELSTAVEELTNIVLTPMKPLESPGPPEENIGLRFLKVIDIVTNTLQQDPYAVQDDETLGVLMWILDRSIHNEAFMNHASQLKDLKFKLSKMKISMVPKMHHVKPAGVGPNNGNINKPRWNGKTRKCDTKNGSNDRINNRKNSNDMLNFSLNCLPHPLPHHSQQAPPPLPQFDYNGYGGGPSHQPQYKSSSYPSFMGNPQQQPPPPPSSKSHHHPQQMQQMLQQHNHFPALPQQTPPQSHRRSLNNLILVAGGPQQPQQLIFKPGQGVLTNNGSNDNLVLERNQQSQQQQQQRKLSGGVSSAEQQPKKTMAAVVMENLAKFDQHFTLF

[5] = target: T4, PH-EGFP-Smaug (Drosophila), Q23972; test: ReLo; details: remark: other sources report otherwise

B1: Smaug NTD (Smaug 1-281), ReLo (domain or fragment, UniProt Q23972 1-281)
chain: MKYATGTDNAMTSGISGQTNNSNSASNEMQPTTSTPTAAHKEATSTATTTATYANGNPNSNANPSQSQPSNALFCEQVTTVTNLFEKWNDCERTVVMYALLKRLRYPSLKFLQYSIDSNLTQNLGTSQTNLSSVVIDINANNPVYLQNLLNAYKTFQPCDLLDAMSSSSSDKDSMPCYGSDFQITTSAQCDERKLYARKEDILHEVLNMLPLLKPGNEEAKLIYLTLIPVAVKDTMQQIVPTELVQQIFSYLLIHPAITSEDRRSLNIWLRHLEDHIQAAA
binding [1]: binds | binding [2]: binds

B2: Smaug NTD (70-281) S250E/L253E (domain or fragment, UniProt Q23972 70-281)
chain: SNALFCEQVTTVTNLFEKWNDCERTVVMYALLKRLRYPSLKFLQYSIDSNLTQNLGTSQTNLSSVVIDINANNPVYLQNLLNAYKTFQPCDLLDAMSSSSSDKDSMPCYGSDFQITTSAQCDERKLYARKEDILHEVLNMLPLLKPGNEEAKLIYLTLIPVAVKDTMQQIVPTELVQQIFEYLEIHPAITSEDRRSLNIWLRHLEDHIQAAA
binding [3]: no binding

B3: Cup, Q9VMA3 1-1117 (protein)
chain: MQMAEAEQENGAGALKIATNAGATDRPAHQQLPLPVEDQQDEVLTPAEKGKFEYPPPPPPPTPVQAPLATKATALNASQEHDDDEANSEKWEDPCAPPPPPPLPTSAFLATGLGYLKLPAFKLKDALEKAITKLEANKRTLKASPESSRSIKNKNVVALEMLPRRSNPETIGDGSMLASTSTAVMLQTKKPAVIVEMERRCKIINLLAKQNQILESISGEAIPMHGPSKHLHEDEGLTLQVLSARASTPYTQPSSMLSCTAVSCDLEHDSPRKQVASKEAVPEQQSSQVQQKRPPSTGIHKPGSLRAPKAVRPTTAPVVSSKPVKSYTRSRLMDIRNGMFNALMHRSKESFVMPRIATCDDIELEGRLRRMNIWRTSDGTRFRTRSTTANLNMNNNNNNECMPAFFKNKNKPNLISDESIIQSQPPQPQTEFQDPAIVNQRRIGSGRLNHSKWGYNDEDYHSYHNGKSQHMEEVNSKNSKNMTVLQFFDNGEISSQPQRRPNTPVMGMSINRSENDTLHSNESSEDLSRANENYVKRVMSGFLVVSKPKSRDVEDRHHRRYRNQNEEPEWFSCGPTSRLDTIELCGFDEDEEKMLKEGNKNHGLGETERETSKQKMDHKYKWTHAEPMGRSKYMPKHDTNNNHNVENMNNVMATEHQQQKEEKRPGSGRSFQFDKFNQSQQNYESSSYVNHQQPPQTQPQQMQQQSNTNTNNSKFMSFFANEGNSSSSSLNEFFKQAINQGHGNNPEQPKSLGHIGQMPSVDQLEAKWRRNSLNNVGETANKQTDNFQKLIGSLSSAKPQSQAVGYDAISNFIMQQQQYQQQQQKQHLIIQQQQQHTAFLASLQLKAILGRADTQLLLLRLTKGEISKHGLLVQLANPRLTDMDREAITAVLQFTNTQQQQQQHKQQLDMLSSTVIASQLQNLHNLAIVQQTLAARQQPQHNPQTQAPHQLSQEDLQAHANVIMRNAVMKRKIEEQTSKLINGGAKHQAQQQYLNRGQQRQARPDANSNALLHALISGGGNNHASGYPMNGQPQKHHSNLRFGDNQNFQSFESNQPHFATQYKQQYQQSQQQHPHQQPQQLNSLHQNNAGAVNSFNKAQMQAQSAISMLPNSGDEFH
binding [4]: no binding | binding [5]: no binding
